PubChem BioAssay AID720591 (Broad Institute, 2013)
Among all 1,200 compounds or so, about 60 (5%) were called active. About 1% were inconclusive and are not listed.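 How the source made its calls: active means Decreasing signal and fitted IC50 at most twice the top valid tested dose; inconclusive means Bad fit or a level curve showing 30 to 70% inhibition; inactive means the rest.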 The list shows a part of the results. Potency and affinity values are given separately.

Chains of the proteins cited; added tags and fusions are not shown. Lines headed by an entry give the natural chain unless they say otherwise; changes in a name come on top.
UniProt Q9NXA8: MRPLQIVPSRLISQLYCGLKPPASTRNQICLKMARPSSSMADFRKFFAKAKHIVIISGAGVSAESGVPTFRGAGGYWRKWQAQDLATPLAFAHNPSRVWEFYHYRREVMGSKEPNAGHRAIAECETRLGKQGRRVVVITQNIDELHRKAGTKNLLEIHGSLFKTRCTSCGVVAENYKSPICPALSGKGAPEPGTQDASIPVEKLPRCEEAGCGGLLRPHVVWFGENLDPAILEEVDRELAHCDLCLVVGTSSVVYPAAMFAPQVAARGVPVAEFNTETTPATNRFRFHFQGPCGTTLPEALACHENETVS

biological target: NAD-dependent protein deacylase sirtuin-5, mitochondrial (Homo sapiens) (UniProt Q9NXA8); experiment: SIRT5 desuccinylase inhibitors, dose response, biochemical, fluorescence imaging, cherry-pick, set 5 (AID 720591); conditions: Purified SirT5, succinyl-peptide AMC, trypsin-coupled fluorescence; at 15 µM (top of the series) unless noted;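 further: 0% = median of neutral control wells and -100% = median of positive control wells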

Activity change, negative = inhibition, inactive:
Cc1cc(NC(=O)CCC(=O)N(Cc2ccco2)C(C(=O)NC2CCCC2)c2ccccc2)no1 (centres undefined) 8.61%
O=C(Nc1ccccc1C(=O)N1CCOCC1)c1cc2ccccc2o1 -3.3%
COC(=O)c1ccc([C@@H](O)[C@H](C)C(=O)CC(=O)OC(C)(C)C)cc1 -32%
CN(C(=O)CC1C(=O)NCCN1Cc1ccccc1C(F)(F)F)C1CCOCC1 (centres undefined) 7.04%
CC(C)(C)Cc1nnc(NC(=O)Cc2cccs2)s1 14.6%
COc1ccc(C(=O)OCCN2CCCCC2)cc1 -12%
CCOC(=O)c1sc2nc(OCc3cccnc3)cc(C)c2c1N 7.5%
CCN(c1ccccc1)S(=O)(=O)c1ccc(OC)c(NC(=O)Cc2ccccc2OC)c1 14.9%
CCCCCCN1C[C@@H](n2cc(C3CC3)nn2)[C@H](O)C[C@@H]1c1ccc(OC)cc1 -37.2%
CCCNC(=O)CN(c1cccc(F)c1)S(C)(=O)=O -1.82%
Nn1c(C2CCC2)nc2cc(Cl)ccc2c1=O -25.2%
Cc1ccc(NC(=O)Cn2sc3ccccc3c2=O)cc1 -30.7%
O=C(NCCN1CCOCC1)C1CCC(CNS(=O)(=O)c2ccc(Cl)cc2)CC1 (centres undefined) -17.8%
Cn1c(N)c(C(=O)CSc2nnc(C3CC3)n2N)c(=O)n(C)c1=O -22.5%
O=C(Nc1ccc(N2CCN(C(=O)c3ccco3)CC2)cc1)c1ccccc1 15.6%
Cc1ccc(S(=O)(=O)N2C[C@H]3[C@H]4C(=O)N(c5ccccc5)C(=O)[C@H]4C[C@H](OC(=O)NCc4ccccc4)[C@@]3(O)C2)cc1 -30.1%
O=S(=O)(Cc1ccccc1)c1nc2ccccc2n1Cc1ccccn1 -27.5%
O=C1N[C@@H](Cc2ccccc2)[C@@H](c2ccco2)O1 4.45%
COc1ccccc1N1CCN(c2ncnc3sc(C(=O)NCC4CCCO4)c(C)c23)CC1 (centres undefined) 3.81%
Cc1cccc(N(C(=O)c2snc(C(N)=O)c2N)C(C(=O)NCC2CCCO2)c2ccc3ncccc3c2)c1 (centres undefined) 4.66%
Cc1cc(OCC(O)CNC(C)(C)C)ccc1Cl (centres undefined) 3.37%
Cc1ccc2cc(CN(Cc3ccc(F)cc3)Cc3nnnn3C3CCCC3)c(=O)[nH]c2c1 6.37%
CN(CC(=O)Nc1ccc(S(N)(=O)=O)cc1)Cc1ccccc1F 18.9%
CSc1nc(N)nc2c1ncn2CC(=O)NCc1ccc2c(c1)OCO2 -33.5%
CCOC(=O)C1CCN(C(=O)Cn2cc(C(=O)OC)c3ccccc32)CC1 -21.2%
Cc1nn(CC(=O)NCCCN2CCC(Cc3ccccc3)CC2)c(=O)c2cc(-c3ccccc3)nn12 4.5%
CC(C)(C)S(=O)N1Cc2cc(=O)n(Cc3ccccc3)c(CCO)c2[C@H]1CCO (some centres undefined) 8.68%
COc1ccccc1NC(=O)CN1CCN(C(=O)C2CCCO2)CC1 (centres undefined) 8.13%
O=C(O)CCCC(=O)Nc1ccccc1C(=O)N1CCOCC1 -26.4%
CC(C)c1ccc(NC2CCCN(C(=O)CC3CCCC3)C2)cc1 (centres undefined) 20.8%
CN1CCN(c2nc3c(c(=O)n(C)c(=O)n3C)n2Cc2ccccc2)CC1 10.6%
CCC(C)[C@H]1CN=C(N)N1CCCc1cc(OC)c(OC)c(OC)c1 (some centres undefined) -23.2%
Cc1ccc(CN2CCN(Cc3cnn(-c4ccc(Cl)cc4)c3)CC2CCO)o1 (centres undefined) 18.4%
Cc1ccc(S(=O)(=O)NC(=O)Nc2ccc(Cl)cn2)cc1 -14.3%
O=C(Cn1cnc2c(NCc3ccccc3)ncnc21)NCc1ccc2c(c1)OCO2 -13%
Cc1ccc(C(C(=O)NC2CCCC2)N(Cc2ccco2)C(=O)CCC(=O)Nc2cc(C)on2)cc1 (centres undefined) -17%
Cc1occc1C(=O)N(C)CC1CCCN(CCc2ccccc2F)C1 (centres undefined) -31.8%
C[C@@H](CSc1ccc(Br)cc1)CN1CC[C@H](NC(=O)OCc2ccccc2)CCC1=O 21.5%
Cn1c(=O)c2c(nc(OCCc3ccccc3)n2C)n(C)c1=O -26.2%
COc1ccc(CN(C(=O)Cn2nnc(-c3ccc(C)o3)n2)C(C(=O)NCC2CCCO2)c2ccco2)cc1 (centres undefined) -16.3%
CC(=O)N1CCN(c2ccccc2NC(=O)c2ccc(Br)o2)CC1 23.7%
COc1ccc(C(C)C)cc1S(=O)(=O)n1ccnc1C -21.8%
Cc1cc(NC(=O)CCC(=O)N(Cc2ccco2)C(C(=O)NC2CCCC2)c2ccccc2C)no1 (centres undefined) -14.6%
COc1ccc(CC(=O)Nc2cc(S(=O)(=O)Nc3ccc(OC)cc3)ccc2OC)cc1 -31.7%
CCOc1cccc(=O)c2c(C)n(-c3ccc(C(=O)O)cc3)c(C)c12 -31.8%
Cc1cc(-c2nc(C)c(-c3nnc(SCC(=O)Nc4ccc(Cl)cc4)n3C)s2)no1 18.5%
Cn1c(SCc2ccc(C#N)cc2)nnc1-c1ccccc1 -13.4%
CCOc1cc(C)ccc1OCc1nnc(SCC(=O)Nc2cccc(C(=O)O)c2)n1-c1ccccc1 -14.2%
Cc1oc(-c2ccc(Cl)cc2)nc1CN1CCCC(C(=O)N2CCOCC2)C1 (centres undefined) -27.5%
COCCCNc1nc2cc(OC)c(OC)cc2c2nc(-c3ccccc3)nn12 4.25%
COc1cc2c(cc1OC)C(c1c(Cl)cccc1Cl)NC(=O)C2 (centres undefined) -24.4%
Cc1ccc(S(=O)(=O)N2C[C@@H](C)[C@]3(C2)[C@H](O)[C@H](OC(=O)NCc2ccco2)C[C@H]2C(=O)N(c4ccccc4)C(=O)[C@H]23)cc1 -12.3%
C[C@@H]1CN([C@H](C)CO)C(=O)c2cc(NC(=O)Cc3ccccc3)ccc2O[C@H]1CN(C)Cc1ccc(Oc2ccccc2)cc1 -18.2%
COc1ncnc2c1ncn2CCCN1CCN(c2ccccn2)CC1 -21.8%
C[C@H](CO)N1C[C@H](C)[C@@H](CN(C)CC2CCCCC2)Oc2c(NS(=O)(=O)c3ccc(F)cc3)cccc2C1=O 5.13%
CC1(C(=O)Nc2cccc(C(F)(F)F)c2)Cc2c(-c3cccc(C(F)(F)F)c3)ccnc2O1 (centres undefined) -24%
C[C@H](CO)N1C[C@H](C)[C@@H](CN(C)S(=O)(=O)c2cccs2)Oc2ccc(NC(=O)CCC(F)(F)F)cc2C1=O -22%
COc1ccccc1-c1cc(C(=O)NC(C)C)no1 -1.51%
COc1cc(OC)c(NS(=O)(=O)c2cc(C(=O)OCC(=O)NCC3CCCO3)ccc2OC)cc1Cl (centres undefined) -26.7%
CCc1ccc(N(C(=O)CCC(=O)Nc2cc(C)on2)C(C(=O)NC2CCCC2)c2ccco2)cc1 (centres undefined) 8.88%
COc1cc2cc(C#N)c(SCC(=O)Nc3cc(C)on3)nc2cc1OC -3.85%
CC(=O)c1cccc(NC(=O)CCS(=O)(=O)c2ccc(Br)s2)c1 -17.1%
C[C@@H]1CN([C@H](C)CO)C(=O)CCCn2nncc2CO[C@H]1CN(C)C(=O)Nc1cccc2ccccc12 11.2%
CC1CCCN(C(=O)COC(=O)C2CCN(S(=O)(=O)c3c(Cl)cccc3Cl)CC2)C1 (centres undefined) 15.2%
O=C(Nc1ccc(F)cc1)C1CC(=O)n2ncnc2N1 (centres undefined) -19.7%
O=C(O)CCC(=O)Nc1ccc(-c2nc3ccc(C(=O)c4ccccc4)cc3[nH]2)cc1 -28.6%
CC(=O)Nc1ccc(S(=O)(=O)Nc2nc3ccccc3nc2Nc2ccc(C(=O)O)c(O)c2)cc1 -36%
Cc1ccccc1C(=O)c1cccn1CC(=O)NCc1ccccc1Cl -6.51%
COCCCNC(=O)CC1C(=O)N(Cc2ccccc2)C(C)c2nc3ccccc3n21 (centres undefined) -24.6%
CN(C(=O)c1ccc2c(=O)n3c(nc2c1)CCCCC3)c1ccccc1F -21.9%
CCN(CC)C(=O)C1CCCN(Cc2ccc3ccccc3c2)C1 (centres undefined) -10.8%
CCNc1nc(C#N)nc2c1ncn2-c1cc(F)cc(F)c1 12.5%
CC(C)NC(=O)N(C)C[C@@H]1OCc2cnnn2CCCC(=O)N([C@@H](C)CO)C[C@H]1C 10.8%
COc1cccc(Nc2nc(CN3CCOCC3)nc3sc4c(c23)CCCC4)c1 2.63%
O=C(Nc1ccc(N2CCCC2)c(Cl)c1)c1cccs1 7.47%
CN(Cc1ccccc1F)C(=O)c1ccc(NS(=O)(=O)c2ccc3[nH]c(=O)[nH]c3c2)cc1 -20.6%
C[C@@H]1CN([C@@H](C)CO)C(=O)c2cc(/C=C/c3ccccc3)cnc2O[C@@H]1CN(C)S(=O)(=O)c1ccc(F)cc1 24.1%
CS(=O)(=O)N(CC(=O)N1CCCC1)c1ccc(F)cc1 6.53%
Cc1ccc(-n2cc(CN3CCN(Cc4nccn4C)CC3)c(-c3ccc(F)cc3)n2)cc1 14.7%
Cc1ccc(NC(=O)COc2ccc(Br)cc2CO)cc1S(=O)(=O)N1CCOCC1 3.1%
CC1CC(C)CN(S(=O)(=O)c2ccc3c(c2)oc(=O)n3CC(=O)NCc2cccnc2)C1 (centres undefined) -23.1%
CCCCCCc1ccc(OCC(=O)OC)cc1OCC(=O)OC 30.7%
CN(C)c1nc2c(c(=O)n(C)c(=O)n2C)n1Cc1ccccc1 1.34%
O=C(O)c1ccc2c(c1)ncn2C1CCCC1 -11.2%

Reprinted from above, three compounds:
Activity change, negative = inhibition, inactive:
CCCNC(=O)CN(c1cccc(F)c1)S(C)(=O)=O -1.82%
Nn1c(C2CCC2)nc2cc(Cl)ccc2c1=O -25.2%
Cc1ccc(NC(=O)Cn2sc3ccccc3c2=O)cc1 -30.7%
